These results are taken from PMC6632053, “Incorporation of Putative Helix-Breaking Amino Acids in the Design of Novel Stapled Peptides: Exploring Biophysical and Cellular Permeability Properties” (Molecules, 2019).

Bridge positions count the residues as written; N and C are the ends. Square brackets hold non-standard residues; d marks the D form. Peptide text beside a SMILES is read from it. R8 = C=CCCCCCC[C@@](C)(N)C(=O)O; Cba = N[C@@H](CC1CCC1)C(=O)O; S5 = C=CCCC[C@](C)(N)C(=O)O

The first data set has as its system p53 responsive β-lactamase reporter in HCT116 cells. In words: p53 beta-lactamase reporter gene cellular functional assay. Format: cell-based. The following applies: Table 1; cellular EC50/Mdm2 Kd. The procedure:
HCT116 cells were stably transfected with a p53 responsive β-lactamase reporter and were seeded into a 384-well plate at a density of 8000 cells per well. Cells were maintained in McCoy’s 5A Medium with 10% fetal bovine serum (FBS), Blasticidin, and Penicillin/Streptomycin. The cells were incubated overnight, followed by removal of cell growth media and replacement with Opti-MEM either containing 0% FBS or 10% FBS. […] The final working concentration of DMSO was 0.5%. β-lactamase activity was detected using the ToxBLAzer Dual Screen (Invitrogen), as per the manufacturer’s instructions. Measurements were made using the Envision multiplate reader (Perkin–Elmer).
Regarding `CC(=O)N[C@@H](CC(C)C)C(=O)N[C@H](C(=O)N[C@@H](Cc1ccccc1)C(=O)N[C@]1(C)CCCCCCC=CCCC[C@@](C)(C(=O)N[C@@H](C)C(=O)N[C@@H](C)C(=O)N[C@@H](C)C(N)=O)NC(=O)[C@H](CC2CCC2)NC(=O)[C@H](CC(C)C)NC(=O)[C@H](CCC(N)=O)NC(=O)[C@H](Cc2c[nH]c3ccccc23)NC(=O)[C@H](Cc2ccc(O)cc2)NC(=O)[C@H](CCC(=O)O)NC1=O)[C@@H](C)O` [Peptide S12A] (Ac-LTF[R8]EYWQL[Cba][S5]AAA-NH2; staple 4-11), the “Ratio (fold-shift between the binding affinity and cellular activity)” value came to 17.

On to `CC(=O)N[C@@H](CC(C)C)C(=O)N[C@@H](C)C(=O)N[C@@H](Cc1ccccc1)C(=O)N[C@]1(C)CCCCCCC=CCCC[C@@](C)(C(=O)N[C@@H](CO)C(=O)N[C@@H](C)C(=O)N[C@@H](C)C(N)=O)NC(=O)[C@H](CC2CCC2)NC(=O)[C@H](CC(C)C)NC(=O)[C@H](CCC(N)=O)NC(=O)[C@H](Cc2c[nH]c3ccccc23)NC(=O)[C@H](Cc2ccc(O)cc2)NC(=O)[C@H](CCC(=O)O)NC1=O` [Peptide T2A] (Ac-LAF[R8]EYWQL[Cba][S5]SAA-NH2; staple 4-11), for which the “Ratio (fold-shift between the binding affinity and cellular activity)” value was determined as 47.

Consider `CC(=O)N[C@@H](CC(C)C)C(=O)N[C@H](C(=O)N[C@@H](Cc1ccccc1)C(=O)N[C@]1(C)CCCCCCC=CCCC[C@@](C)(C(=O)N[C@@H](CO)C(=O)N[C@@H](C)C(=O)N[C@@H](C)C(N)=O)NC(=O)[C@H](CC2CCC2)NC(=O)[C@H](CC(C)C)NC(=O)[C@H](CCC(N)=O)NC(=O)[C@H](C)NC(=O)[C@H](Cc2ccc(O)cc2)NC(=O)[C@H](CCC(=O)O)NC1=O)[C@@H](C)O` [Peptide W7A] (Ac-LTF[R8]EYAQL[Cba][S5]SAA-NH2; staple 4-11), for which the “Ratio (fold-shift between the binding affinity and cellular activity)” value is recorded as 2.

Consider `CC(=O)N[C@@H](CC(C)C)C(=O)N[C@H](C(=O)N[C@@H](Cc1ccccc1)C(=O)N[C@]1(C)CCCCCCC=CCCC[C@@](C)(C(=O)N[C@@H](CO)C(=O)N[C@@H](C)C(=O)N[C@@H](C)C(N)=O)NC(=O)[C@H](CC2CCC2)NC(=O)[C@H](CC(C)C)NC(=O)[C@H](CCC(N)=O)NC(=O)[C@H](Cc2c[nH]c3ccccc23)NC(=O)[C@H](C)NC(=O)[C@H](CCC(=O)O)NC1=O)[C@@H](C)O` [Peptide Y6A] (Ac-LTF[R8]EAWQL[Cba][S5]SAA-NH2; staple 4-11), for which the “Ratio (fold-shift between the binding affinity and cellular activity)” value is listed as 14.

Staying with this data set, now noted: Table 2; cellular EC50/Mdm2 Kd.
Regarding `CC(=O)N[C@@H](CCCCN=[N+]=[N-])C(=O)NCCC(=O)N[C@@H](CC(C)C)C(=O)N[C@H](C(=O)N[C@@H](Cc1ccccc1)C(=O)N[C@]1(C)CCCCCCC=CCCC[C@@](C)(C(=O)N[C@@H](CO)C(=O)N[C@@H](C)C(=O)N[C@@H](C)C(N)=O)NC(=O)[C@H](CC2CCC2)NC(=O)CNC(=O)[C@H](C)NC(=O)[C@H](Cc2c[nH]c3ccccc23)NC(=O)[C@H](Cc2ccc(O)cc2)NC(=O)[C@H](CCC(=O)O)NC1=O)[C@@H](C)O` [Peptide Q9G], the “Ratio (fold-shift between the binding affinity and cellular activity)” value is 16.

`CC(=O)N[C@@H](CCCCN=[N+]=[N-])C(=O)NCCC(=O)N[C@@H](CC(C)C)C(=O)N[C@H](C(=O)N[C@@H](Cc1ccccc1)C(=O)N[C@]1(C)CCCCCCC=CCCC[C@@](C)(C(=O)N[C@@H](CO)C(=O)N[C@@H](C)C(=O)N[C@@H](C)C(N)=O)NC(=O)[C@H](CC2CCC2)NC(=O)[C@@H]2CCCN2C(=O)[C@H](C)NC(=O)[C@H](Cc2c[nH]c3ccccc23)NC(=O)[C@H](Cc2ccc(O)cc2)NC(=O)[C@H](CCC(=O)O)NC1=O)[C@@H](C)O` [Peptide Q9P]: the “Ratio (fold-shift between the binding affinity and cellular activity)” value is 41.

For the molecule `CC(=O)N[C@@H](CCCCN=[N+]=[N-])C(=O)NCCC(=O)N[C@@H](CC(C)C)C(=O)N[C@H](C(=O)N[C@@H](Cc1ccccc1)C(=O)N[C@]1(C)CCCCCCC=CCCC[C@@](C)(C(=O)NCC(=O)N[C@@H](C)C(=O)N[C@@H](C)C(N)=O)NC(=O)[C@H](CC2CCC2)NC(=O)[C@H](CCC(N)=O)NC(=O)[C@H](C)NC(=O)[C@H](Cc2c[nH]c3ccccc23)NC(=O)[C@H](Cc2ccc(O)cc2)NC(=O)[C@H](CCC(=O)O)NC1=O)[C@@H](C)O` [Peptide S12G], the “Ratio (fold-shift between the binding affinity and cellular activity)” value worked out at 34.

Consider `CC(=O)N[C@@H](CCCCN=[N+]=[N-])C(=O)NCCC(=O)N[C@@H](CC(C)C)C(=O)N[C@H](C(=O)N[C@@H](Cc1ccccc1)C(=O)N[C@]1(C)CCCCCCC=CCCC[C@@](C)(C(=O)N2CCC[C@H]2C(=O)N[C@@H](C)C(=O)N[C@@H](C)C(N)=O)NC(=O)[C@H](CC2CCC2)NC(=O)[C@H](CCC(N)=O)NC(=O)[C@H](C)NC(=O)[C@H](Cc2c[nH]c3ccccc23)NC(=O)[C@H](Cc2ccc(O)cc2)NC(=O)[C@H](CCC(=O)O)NC1=O)[C@@H](C)O` [Peptide S12P], for which the “Ratio (fold-shift between the binding affinity and cellular activity)” value was 80.

For the molecule `CC(=O)N[C@@H](CCCCN=[N+]=[N-])C(=O)NCCC(=O)N[C@@H](CC(C)C)C(=O)N[C@H](C(=O)N[C@@H](Cc1ccccc1)C(=O)N[C@]1(C)CCCCCCC=CCCC[C@@](C)(C(=O)N[C@@H](CO)C(=O)N[C@@H](C)C(=O)N[C@@H](C)C(N)=O)NC(=O)[C@H](CC2CCC2)NC(=O)[C@H](CCC(N)=O)N(C)C(=O)[C@H](C)NC(=O)[C@H](Cc2c[nH]c3ccccc23)NC(=O)[C@H](Cc2ccc(O)cc2)NC(=O)[C@H](CCC(=O)O)NC1=O)[C@@H](C)O` [Q9(N-methyl L-Gln)], the “Ratio (fold-shift between the binding affinity and cellular activity)” value was over 237.
